PubChem BioAssay AID602196 | INSERM, 2012

Screen: 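Modifiers of cisplatin sensitivity in A549 cells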
System: human A549 lung cancer cells
Reagents: siRNA pair against human genes
Time to read-out: 48 h transfection before cisplatin; time from cisplatin to read-out not stated
Challenge: cisplatin at a dose killing half of control-siRNA cells; exact dose and duration not given
Measured: 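Cisplatin cell death as a shift from the 50% death seen with control siRNA; siRNAs toxic or growth-blocking alone scored 0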
Scale: two-siRNA summed score (-2 to +2): higher = both siRNAs protect from cisplatin killing; -2 means both sensitise; mean protection from cisplatin (shift in death) and protection from cisplatin (shift in death), siRNA C and protection from cisplatin (shift in death), siRNA D: higher = protection from cisplatin killing
Active means: 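Each siRNA scores 0 if harmful alone by LDH or WST-1, otherwise +1 if it reduces and -1 if it increases cisplatin killing; a gene is active when both siRNAs agree (sum +2 or -2)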
Calls: active = both siRNAs shift cisplatin killing the same way; inactive = no consistent shift, or siRNA harmful alone
Shown is one part, drawn at random, of about 23,000 deposited reagents. 455 of them (2%) count as active. 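Active includes both protection and sensitisation; some change values fall well beyond the stated -50 to +50 range.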 The record does not give: the amount of reagent.

The opening 3 entries, to show the layout:
gene,two-siRNA summed score (-2 to +2),mean protection from cisplatin (shift in death) (%),"protection from cisplatin (shift in death), siRNA C (%)","protection from cisplatin (shift in death), siRNA D (%)",call
ROM1 (GeneID 6094),1,15.1,21.2,9,inactive
FOXO4 (GeneID 4303),0,-3.5,-10.2,3.2,inactive
SFT2D1 (GeneID 113402),-1,-8,-4.4,-11.5,inactive

The list itself, repeating the preview:
gene,two-siRNA summed score (-2 to +2),mean protection from cisplatin (shift in death) (%),"protection from cisplatin (shift in death), siRNA C (%)","protection from cisplatin (shift in death), siRNA D (%)",call
ROM1 (GeneID 6094),1,15.1,21.2,9,inactive
FOXO4 (GeneID 4303),0,-3.5,-10.2,3.2,inactive
SFT2D1 (GeneID 113402),-1,-8,-4.4,-11.5,inactive
LOC440716 (retired record) (GeneID 440716),0,9.1,8.1,10.1,inactive
TRIM11 (GeneID 81559),1,18.3,9.5,27.1,inactive
LOC402055,0,6.7,10.8,2.6,inactive
ADGRB2 (GeneID 576),0,-7.4,-17.3,2.5,inactive
DVL1 (GeneID 1855),0,-0.6,3.2,-4.4,inactive
LOC441499,-1,-5.8,0.5,-12,inactive
FAM181A (GeneID 90050),0,-3.8,3.6,-11.2,inactive
NRXN3 (GeneID 9369),0,5.9,5.5,6.2,inactive
MBNL1 (GeneID 4154),-1,-4.7,9.7,-19.1,inactive
POU6F1 (GeneID 5463),0,-34.1,-29.8,-38.4,inactive
CMKLR1 (GeneID 1240),0,9.7,-6.7,26,inactive
ATP8B2 (GeneID 57198),1,16.7,34,-0.5,inactive
POU4F2 (GeneID 5458),0,10.8,6.9,14.6,inactive
RPAP1 (GeneID 26015),0,5.8,10.3,1.2,inactive
MNAT1 (GeneID 4331),-1,-13.8,-8.7,-19,inactive
KMT2D (GeneID 8085),0,-5.8,-19.1,7.5,inactive
DUSP3 (GeneID 1845),1,2.5,10.8,-5.8,inactive
SCN2B (GeneID 6327),0,-2.8,-4.5,-1.2,inactive
PSME1 (GeneID 5720),0,0.5,-4.5,5.4,inactive
MKRN4P (GeneID 7682),0,-15.9,-18.3,-13.5,inactive
KDELR1 (GeneID 10945),0,-7.1,6,-20.1,inactive
IGFBP7-AS1 (GeneID 255130),1,11.8,8.6,15.1,inactive
EOGT (GeneID 285203),0,4.7,0,9.4,inactive
NOP56P2 (GeneID 402360),0,-0.6,-4.7,3.6,inactive
OR2M5 (GeneID 127059),1,16,21.6,10.4,inactive
LOC440409,1,8.1,3,13.2,inactive
LOC441850,0,12,6.4,17.5,inactive
UQCRC2 (GeneID 7385),0,-3.1,-7.9,1.7,inactive
LOC440298,0,11.9,17.6,6.1,inactive
ABCA1 (GeneID 19),-2,-9.1,-4.4,-13.8,active
MORC2 (GeneID 22880),1,13.2,12.1,14.4,inactive
MESP2 (GeneID 145873),0,4.1,11.1,-2.8,inactive
PIGV (GeneID 55650),-1,-14.4,-2.7,-26,inactive
PTK7 (GeneID 5754),0,6.1,-2.9,15,inactive
KIAA1971,0,8.5,15.3,1.7,inactive
FYTTD1 (GeneID 84248),0,-3.2,-11.2,4.9,inactive
NSUN3 (GeneID 63899),0,8,12.6,3.3,inactive
D-JC6,0,-4.4,2.9,-11.6,inactive
BNIP5 (GeneID 389384),0,6.8,2.7,10.9,inactive
PSG11 (GeneID 5680),-1,-5.7,-18.8,7.4,inactive
CEP170B (GeneID 283638),1,13.6,24.8,2.4,inactive
APOC1 (GeneID 341),1,24.6,20.9,28.2,inactive
UGT1A9 (GeneID 54600),0,9,19.5,-1.5,inactive
LOC391692,1,0.4,-12.3,13.2,inactive
LOC221140,0,3.5,1.5,5.5,inactive
LOC388907,0,6.1,-5.9,18.1,inactive
C22orf31 (GeneID 25770),0,0,-1.3,1.2,inactive
CILP2 (GeneID 148113),0,10.9,4.9,16.9,inactive
TIMM10 (GeneID 26519),0,-0.4,4.3,-5,inactive
MRGBP (GeneID 55257),0,-2.7,0.7,-6.2,inactive
DHODH (GeneID 1723),0,-21.3,-25.6,-17.1,inactive
PLD3 (GeneID 23646),-1,-21.1,-33.5,-8.8,inactive
FERD3L (GeneID 222894),0,20.1,21.1,19.1,inactive
LOC440956,0,11.9,4,19.8,inactive
IRAG1 (GeneID 10335),0,-2.6,-1.7,-3.5,inactive
NRN1L (GeneID 123904),0,8.2,10.6,5.9,inactive
ALMS1P1 (GeneID 200420),0,0,-6.2,6.2,inactive
EQTN (GeneID 54586),0,13.2,16.9,9.6,inactive
LOC441582,0,-0.4,1.7,-2.5,inactive
OSBPL6 (GeneID 114880),0,-0.9,-2.8,1,inactive
MRPL4 (GeneID 51073),1,18.6,10.3,26.9,inactive
CDSN (GeneID 1041),0,5.1,3.5,6.7,inactive
ABL2 (GeneID 27),-1,-15.6,-24.4,-6.8,inactive
SNX25 (GeneID 83891),-1,-13.8,-17.2,-10.4,inactive
HLA-DRA (GeneID 3122),0,1.1,3.2,-0.9,inactive
GPR85 (GeneID 54329),0,9.1,3.4,14.8,inactive
CTNS (GeneID 1497),-1,-11,5.5,-27.4,inactive
COLEC12 (GeneID 81035),1,15.9,21.5,10.2,inactive
LOC338734,2,19.6,20,19.2,active
APOE (GeneID 348),1,9.3,28.5,-10,inactive
